Measured values reported in US10071989B2, “Substituted cinnamamide derivative, preparation method and use thereof” (TASLY PHARMACEUTICAL GROUP CO., LTD., priority 2011, dated 2018).
At least one read-out could not be matched to a standard name with certainty.

The molecules below were run on C57BL/6 mice (assay: "Acquired despair" depression model of tail suspension test in mice). Conditions: Experiment 2; 10 mg/kg intragastric once daily for 7 days; 30 min after administration at 7th day; accumulated within 6 min.
Format: in vivo
Method: 30 min after administration at 7th day, the mice was fixed on a sustainer with a rubberized cloth at 1 cm close to the end of the tail of mice, making the mice hanged upside down. The head of the mice was about 30 cm above the table and its sight was separated from the neighboring mouse with a plate. Usually, the mice might manage to struggle in hopes of overcoming the abnormal body position. […] The accumulated immobility time within 6 min of each mouse was observed, which was regarded as “despair time”.
130 mice were randomly selected to observe the number of their autonomic activity. The method was the same with that of Experiment 1. 108 mice with the number of autonomic activity between 70˜140 were screened out, divided randomly into 9 groups, and intragastrically administrated with the drug compounds at a dose listed in Table 2, one time daily for 7 days consecutively. The solvent control group was administrated with 2% Tween-80 aqueous solution in the same volume. 30 min after administration at 6th day, the number of the autonomic activity of each mouse was observed. 30 min after administration at 7th day, the immobility time in tail suspension test was observed. The method was the same with that in Experiment 1.
In the case of `CCN(CC)C(=O)/C=C/c1cc2c(c(C(F)(F)F)c1)OCO2` [Compound I-9, N,N-diethyl-5′-trifluoromethyl-3′,4′-methylenedioxy cinnamamide], the “Immobility time in tail suspension test” value is reported as 139.70 ± 48.62 s.
`O=C(/C=C/c1cc2c(c(C(F)(F)F)c1)OCO2)N1CCCCC1` [Compound I-10] was tested, and the “Immobility time in tail suspension test” value was 121.91 ± 22.75 s.
In the case of `CC(C)CNC(=O)CCc1cc2c(c(C(F)(F)F)c1)OCO2` [Compound I-11, N-isobutyl-3-(5′-trifluoromethyl-3′,4′-methylenedioxyphenyl)-propionamide], the “Immobility time in tail suspension test” value is reported as 145.32 ± 33.78 s.
`CC(C)CNC(=O)c1cc2c(c(C(F)(F)F)c1)OCO2` [Compound I-12, N-isobutyl-5-trifluoromethyl-3,4-methylenedioxy benzamide] was tested, and the “Immobility time in tail suspension test” value was 136.44 ± 53.28 s.
In the case of `O=C(c1cc2c(c(C(F)(F)F)c1)OCO2)N1CCCCC1` [Compound I-13, 1-(5-trifluoromethyl-3,4-methylenedioxybenzoyl)-piperidine], the “Immobility time in tail suspension test” value is reported as 122.76 ± 39.34 s.
